Data reported in publication PMC11272581.
These are yes or no findings as the source states them, for the method shown. In cells and extracts the contact can be indirect. Some binding calls cover weakened binding; strength is not graded here. Each block holds one molecule with its values, some of them ahead of it.

Chains of the proteins cited; added tags and fusions are not shown.
UniProt Q92922: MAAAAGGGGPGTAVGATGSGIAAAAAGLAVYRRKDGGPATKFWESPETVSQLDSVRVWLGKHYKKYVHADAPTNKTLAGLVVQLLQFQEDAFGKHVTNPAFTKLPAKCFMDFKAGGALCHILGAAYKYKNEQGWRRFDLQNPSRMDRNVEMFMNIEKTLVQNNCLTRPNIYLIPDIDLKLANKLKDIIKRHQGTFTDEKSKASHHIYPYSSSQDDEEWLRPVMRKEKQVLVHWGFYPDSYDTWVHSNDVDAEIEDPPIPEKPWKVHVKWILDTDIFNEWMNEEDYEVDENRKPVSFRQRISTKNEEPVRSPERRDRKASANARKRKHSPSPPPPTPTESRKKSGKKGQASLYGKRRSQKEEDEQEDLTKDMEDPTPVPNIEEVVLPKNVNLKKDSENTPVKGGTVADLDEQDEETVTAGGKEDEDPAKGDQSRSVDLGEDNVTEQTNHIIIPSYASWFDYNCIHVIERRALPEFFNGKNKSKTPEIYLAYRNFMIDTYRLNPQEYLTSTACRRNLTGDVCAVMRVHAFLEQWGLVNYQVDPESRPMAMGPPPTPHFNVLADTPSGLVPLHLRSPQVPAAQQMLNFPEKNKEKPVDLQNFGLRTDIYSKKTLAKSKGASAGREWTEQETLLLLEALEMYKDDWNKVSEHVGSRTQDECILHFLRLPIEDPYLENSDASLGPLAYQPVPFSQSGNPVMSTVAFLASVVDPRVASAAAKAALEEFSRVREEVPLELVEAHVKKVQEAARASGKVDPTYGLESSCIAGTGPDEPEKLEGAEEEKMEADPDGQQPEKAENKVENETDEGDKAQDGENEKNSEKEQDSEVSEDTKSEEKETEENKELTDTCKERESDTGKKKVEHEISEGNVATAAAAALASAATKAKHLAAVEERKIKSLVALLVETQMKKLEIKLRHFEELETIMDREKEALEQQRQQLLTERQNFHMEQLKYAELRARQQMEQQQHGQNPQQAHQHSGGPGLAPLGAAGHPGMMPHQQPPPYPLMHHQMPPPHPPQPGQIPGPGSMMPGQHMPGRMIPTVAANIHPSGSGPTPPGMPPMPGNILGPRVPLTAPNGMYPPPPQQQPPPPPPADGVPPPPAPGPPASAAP
UniProt O95373: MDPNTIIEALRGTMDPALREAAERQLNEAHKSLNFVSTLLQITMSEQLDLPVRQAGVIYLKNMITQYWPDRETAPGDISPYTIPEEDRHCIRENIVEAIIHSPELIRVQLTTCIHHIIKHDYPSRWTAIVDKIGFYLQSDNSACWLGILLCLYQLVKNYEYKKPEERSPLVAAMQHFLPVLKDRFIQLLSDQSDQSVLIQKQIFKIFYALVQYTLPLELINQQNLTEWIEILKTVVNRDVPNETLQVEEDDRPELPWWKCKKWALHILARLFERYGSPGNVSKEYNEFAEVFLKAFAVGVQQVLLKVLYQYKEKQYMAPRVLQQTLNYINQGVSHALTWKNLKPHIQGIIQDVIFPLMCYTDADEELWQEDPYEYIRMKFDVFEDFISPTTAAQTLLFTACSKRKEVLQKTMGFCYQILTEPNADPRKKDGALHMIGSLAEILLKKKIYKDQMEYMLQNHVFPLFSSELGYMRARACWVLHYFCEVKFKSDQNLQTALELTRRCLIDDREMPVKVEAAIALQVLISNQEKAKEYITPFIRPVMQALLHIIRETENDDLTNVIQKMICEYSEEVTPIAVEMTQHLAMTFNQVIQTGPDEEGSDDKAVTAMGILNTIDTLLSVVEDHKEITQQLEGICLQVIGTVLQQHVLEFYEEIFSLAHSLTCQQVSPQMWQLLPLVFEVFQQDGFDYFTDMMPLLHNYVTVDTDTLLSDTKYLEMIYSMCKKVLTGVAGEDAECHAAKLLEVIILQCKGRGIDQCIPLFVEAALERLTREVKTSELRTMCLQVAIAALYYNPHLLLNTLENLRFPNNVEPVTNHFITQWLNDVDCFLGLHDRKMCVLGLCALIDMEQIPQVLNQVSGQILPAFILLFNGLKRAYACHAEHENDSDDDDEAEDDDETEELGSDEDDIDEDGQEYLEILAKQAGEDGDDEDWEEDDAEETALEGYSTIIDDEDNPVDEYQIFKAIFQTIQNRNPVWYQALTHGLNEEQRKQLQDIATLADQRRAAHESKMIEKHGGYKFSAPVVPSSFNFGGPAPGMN
UniProt Q12824: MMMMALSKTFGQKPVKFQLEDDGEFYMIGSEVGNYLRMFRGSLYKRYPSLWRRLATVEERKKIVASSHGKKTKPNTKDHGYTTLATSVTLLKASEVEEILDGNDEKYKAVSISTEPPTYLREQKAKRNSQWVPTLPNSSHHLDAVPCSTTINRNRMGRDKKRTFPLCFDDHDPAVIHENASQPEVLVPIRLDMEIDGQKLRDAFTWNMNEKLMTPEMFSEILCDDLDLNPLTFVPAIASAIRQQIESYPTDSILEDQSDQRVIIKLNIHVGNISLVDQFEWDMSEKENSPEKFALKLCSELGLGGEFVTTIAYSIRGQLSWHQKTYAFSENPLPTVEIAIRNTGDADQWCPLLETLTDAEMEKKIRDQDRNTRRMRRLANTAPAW
UniProt P04424: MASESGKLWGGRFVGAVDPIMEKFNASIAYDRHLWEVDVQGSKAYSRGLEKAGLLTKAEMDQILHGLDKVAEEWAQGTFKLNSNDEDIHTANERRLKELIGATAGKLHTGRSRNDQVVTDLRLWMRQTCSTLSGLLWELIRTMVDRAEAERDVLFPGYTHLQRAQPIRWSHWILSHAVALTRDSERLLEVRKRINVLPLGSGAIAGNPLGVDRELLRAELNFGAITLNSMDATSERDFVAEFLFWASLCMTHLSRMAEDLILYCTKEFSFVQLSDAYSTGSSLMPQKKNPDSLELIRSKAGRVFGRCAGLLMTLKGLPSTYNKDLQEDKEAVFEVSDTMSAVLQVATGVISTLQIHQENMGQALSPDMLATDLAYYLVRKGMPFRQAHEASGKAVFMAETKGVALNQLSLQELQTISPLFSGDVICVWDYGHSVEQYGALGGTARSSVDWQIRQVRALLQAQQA

How the values were obtained:
[1] = target: SWI/SNF-related, matrix-associated, actin-dependent regulator of chromatin subfamily C member 1 (SMARCC1) (human (endogenous in HCT116)) (UniProt Q92922); experiment: co-IP; immunoprecipitation with anti-SMARCC1 or anti-SNF5 of the chromatin-bound fraction (MNase-released) of control and Dox-treated HCT116 ASS1-EV and ASS1-KO cells, immunoblotted for SNF5 or SMARCC1
[2] = target: T1, argininosuccinate synthase (ASS1) (human (endogenous in HCT116)) (UniProt P00966); experiment: proximity ligation; Duolink in situ PLA on fixed, permeabilised HCT116 cells (WT, ASS1-EV, ASS1-KO), control and Dox-treated; puncta counted in whole cells and nuclei
T1 sequence: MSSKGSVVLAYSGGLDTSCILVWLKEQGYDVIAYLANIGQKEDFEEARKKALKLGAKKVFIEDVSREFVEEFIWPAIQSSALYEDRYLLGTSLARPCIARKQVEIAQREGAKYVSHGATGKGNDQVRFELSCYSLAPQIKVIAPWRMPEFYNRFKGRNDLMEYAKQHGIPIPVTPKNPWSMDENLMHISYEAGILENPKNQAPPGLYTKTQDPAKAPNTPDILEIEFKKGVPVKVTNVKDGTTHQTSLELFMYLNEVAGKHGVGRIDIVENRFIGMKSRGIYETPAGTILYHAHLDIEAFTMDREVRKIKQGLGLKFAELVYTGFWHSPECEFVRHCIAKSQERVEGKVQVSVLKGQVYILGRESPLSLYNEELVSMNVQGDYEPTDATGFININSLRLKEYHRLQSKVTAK

[3] = target: SWI/SNF-related, matrix-associated, actin-dependent regulator of chromatin subfamily C member 1 (SMARCC1) (human (endogenous in HCT116)) (UniProt Q92922); experiment: as above
[4] = target: importin 7 (IPO7) (human (endogenous in HCT116)) (UniProt O95373); experiment: co-IP; immunoprecipitation of IPO7 from the nuclear fraction of control and Dox-treated HCT116 WT cells, immunoblotted; Dynabeads Protein G
[5] = target: SWI/SNF-related, matrix-associated, actin-dependent regulator of chromatin subfamily C member 1 (SMARCC1) (human (endogenous in HCT116)) (UniProt Q92922); experiment: proximity ligation; Duolink in situ PLA on fixed, permeabilised HCT116 cells (WT, ASS1-EV, ASS1-KO), control and Dox-treated; puncta counted in whole cells and nuclei; remark: listed apart in the source
[6] = target: importin 7 (IPO7) (human (endogenous in HCT116)) (UniProt O95373); experiment: as above

binding [1]: binds
Molecule: SWI/SNF-related, matrix-associated, actin-dependent regulator of chromatin, subfamily B, member 5 (SNF5) (from UniProt Q12824 1-385)

binding [2]: binds
binding [3]: binds
Molecule: argininosuccinate lyase (ASL) (from UniProt P04424 1-464) (enzyme)

binding [4]: binds
binding [5]: binds
binding [6]: binds
B1: argininosuccinate synthase (ASS1) (enzyme, UniProt P00966 1-412)
chain: MSSKGSVVLAYSGGLDTSCILVWLKEQGYDVIAYLANIGQKEDFEEARKKALKLGAKKVFIEDVSREFVEEFIWPAIQSSALYEDRYLLGTSLARPCIARKQVEIAQREGAKYVSHGATGKGNDQVRFELSCYSLAPQIKVIAPWRMPEFYNRFKGRNDLMEYAKQHGIPIPVTPKNPWSMDENLMHISYEAGILENPKNQAPPGLYTKTQDPAKAPNTPDILEIEFKKGVPVKVTNVKDGTTHQTSLELFMYLNEVAGKHGVGRIDIVENRFIGMKSRGIYETPAGTILYHAHLDIEAFTMDREVRKIKQGLGLKFAELVYTGFWHSPECEFVRHCIAKSQERVEGKVQVSVLKGQVYILGRESPLSLYNEELVSMNVQGDYEPTDATGFININSLRLKEYHRLQSKVTAK
